{
  "source": "patent US9357924B2",
  "about": "“Composition, method, system and kit for optical electrophysiology” (The Research Foundation of State University of New York, priority 2006, dated 2016)",
  "key": {"[1]": {"system": "pig cardiac tissue (right free ventricular wall)", "experiment": "Optical action potential recording in Tyrode-perfused pig right ventricular wall preparation", "method": "(§1) The dye testing experiments were performed on typical model animals: mice (n=6), rat (n=11), guinea pig (n=6), pig (n=13). All experimental protocols conformed to the Guide for the Care and Use of Laboratory Animals and were approved by the Committee for the Humane Use of Animal of the SUNY Upstate Medical University. Mice (C57BL/6, 20-25 g) were injected with ketamine (200 mg/kg IP), rats (Sprague Dawley, 300-400 g female) and guinea pigs were injected with heparin (550 U/100 g), and euthanized by sodium phentobarbital (1 ml/100 g for rats and 0.75 ml/100 g for guinea pigs). The heart was then immediately excised and placed in ice-cold cardioplegia solution (CPS) composed of (in mmol/l) 280 Glucose, 13.44 KCl, 12.6 NaHCO3, 34 Mannitol. […] Perfusion and superfusion temperatures were continuously monitored and kept at 36±1° C. by using two sets of glass heating coils and heated-refrigerated circulators. […]\n(§2) After a 20-30 min stabilization period during which the perfusion flow and ECG was monitored, the excitation-contraction uncoupler diacetyl-monoxime (DAM) was added to the perfusate (15 mmol/l) to stop contractions of cardiac tissue. […]"}, "[2]": {"system": "guinea pig heart cardiac tissue", "experiment": "Optical action potential recording in Langendorff-perfused guinea pig heart (Tyrode's solution)", "conditions": "processed signals, mean ± SD", "method": "as §1, §2"}, "[3]": {"system": "mouse heart cardiac tissue", "experiment": "Optical action potential recording in Langendorff-perfused mouse heart (Tyrode's solution)", "conditions": "processed signals, mean ± SD", "method": "as §1, §2"}, "rat heart cardiac tissue": {"system": "rat heart cardiac tissue", "experiment": "Optical action potential recording in Langendorff-perfused rat heart (Tyrode's solution)", "conditions": "processed signals, mean ± SD", "method": "as §1, §2"}},
  "note": "Several values for one entry are separate records, joined by “and”; a condition that tells them apart may be missing. Identical values can stand only once.",
  "data": [
    {"smiles": "CCCCN(CCCC)c1ccc2cc(/C=C/C=C/c3cc[n+](CCC[N+](C)(C)C)c4ccccc34)ccc2c1.[Br-].[Br-]", "note": "[JPW6003, Di-4-ANBDQPQ]", "values": [
      {"measurement": "S/N (maximal OP signal to noise ratio)", "setting": "[1]; pig tissue, Tyrode-perfused, epifluorescence", "value": "1000 ± 100 and 850 ± 90"},
      {"measurement": "S/N (maximal OP signal to noise ratio)", "setting": "[1]; pig, transillumination mode", "value": "24 ± 2.2"},
      {"measurement": "S/N (maximal OP signal to noise ratio)", "setting": "[2]", "value": "715 ± 80 and 960 ± 95"},
      {"measurement": "S/N (maximal OP signal to noise ratio)", "setting": "[3]", "value": "490 ± 50 and 530 ± 55"},
      {"measurement": "S/N (maximal OP signal to noise ratio)", "setting": "rat heart cardiac tissue", "value": "670 ± 70 and 760 ± 80"}
    ]}
  ]
}
